{"source": "PubChem BioAssay AID1259308 – NCATS, 2017", "assay": "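Genes whose loss raises luciferase production in HEK293 cells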 (primary screen)", "cell system": "human HEK293 embryonic kidney cells stably expressing firefly luciferase (HEK-CMV-Luc2-Hygro)", "knock-down reagent": "single siRNA against human genes, 0.8 pmol siRNA per well", "timing": "72 h", "read-out": "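Reporter luminescence and viable-cell signal on separate replicate plates, given as percent of non-targeting control and median/MAD z-scores, plus per-cell luciferase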", "reading the numbers": "total luciferase, z-score and total luciferase, % of control: higher = more reporter protein produced", "active means": "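Active when the median/MAD z-score for overall luciferase is greater than 3; a gene was taken forward for validation with new siRNAs if at least two of its three siRNAs passed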", "meaning of the calls": "active = raised luciferase; inactive = no rise", "note": "Shown is a random part of about 59,000 deposited reagents. About 1,510 of all reagents (2.6%) were called active. 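Calls use total luciferase alone and ignore viability, so some active siRNAs may act by altering cell number.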 Reagents against one gene are numbered here. Not all columns of the deposit are shown. No sequences are given here."}
{"gene knocked down": "CEP44 (centrosomal protein 44)", "reagent": 1, "total luciferase, z-score": -2.52, "total luciferase, % of control": 31.7, "call": "inactive"}
{"gene knocked down": "CEP44 (centrosomal protein 44)", "reagent": 2, "total luciferase, z-score": -0.186, "total luciferase, % of control": 78.2, "call": "inactive"}
{"gene knocked down": "CEP44 (centrosomal protein 44)", "reagent": 3, "total luciferase, z-score": -0.53, "total luciferase, % of control": 71.3, "call": "inactive"}
{"gene knocked down": "ZNF475 (zinc finger protein 475)", "reagent": 1, "total luciferase, z-score": 1.24, "total luciferase, % of control": 107, "call": "inactive"}
{"gene knocked down": "ZNF475 (zinc finger protein 475)", "reagent": 2, "total luciferase, z-score": -1.22, "total luciferase, % of control": 57.5, "call": "inactive"}
{"gene knocked down": "ZNF475 (zinc finger protein 475)", "reagent": 3, "total luciferase, z-score": -0.83, "total luciferase, % of control": 65.4, "call": "inactive"}

An excerpt from above, reduced to “total luciferase, % of control”.
CEP44 (centrosomal protein 44) #2 = 78.2
CEP44 (centrosomal protein 44) #3 = 71.3

Continued:
{"gene knocked down": "CPXM2 (carboxypeptidase X, M14 family member 2)", "reagent": 1, "total luciferase, z-score": -2.04, "total luciferase, % of control": 41.4, "call": "inactive"}
{"gene knocked down": "CPXM2 (carboxypeptidase X, M14 family member 2)", "reagent": 2, "total luciferase, z-score": -0.695, "total luciferase, % of control": 68.1, "call": "inactive"}
{"gene knocked down": "CPXM2 (carboxypeptidase X, M14 family member 2)", "reagent": 3, "total luciferase, z-score": -0.769, "total luciferase, % of control": 66.6, "call": "inactive"}
{"gene knocked down": "HNF4G (hepatocyte nuclear factor 4 gamma)", "reagent": 1, "total luciferase, z-score": -1.6, "total luciferase, % of control": 50.1, "call": "inactive"}
{"gene knocked down": "HNF4G (hepatocyte nuclear factor 4 gamma)", "reagent": 2, "total luciferase, z-score": -2.54, "total luciferase, % of control": 31.5, "call": "inactive"}
{"gene knocked down": "HNF4G (hepatocyte nuclear factor 4 gamma)", "reagent": 3, "total luciferase, z-score": 0.288, "total luciferase, % of control": 87.6, "call": "inactive"}
